These are yes or no findings as the source states them, for the method shown. For some of these results: Binding seen in cells or lysates may run through a third protein. Some binding calls cover weakened binding; strength is not graded here. Sequences can lack the tags named with a protein.
Assays:
[1] = target: T1, human PLIN2 (perilipin 2), partially purified (pcDNA4/HisMaxC-mut-hsPLIN2) (human) (UniProt Q99541); assay: ELISA; solid-phase interaction assay: 1.8 μg/well of purified 3xFLAG-PNPLA1, PLIN2 or PLIN3 coated on MaxiSorp plates (50 mM Tris-HCl pH 8.0, 200 mM NaCl); 40 μg HEK293T lysate with Xpress-tagged ABHD5 variants in TBS with 2% BSA and 0.05% Tween 20, overnight at 4°C; anti-Xpress and HRP secondary antibody, TMB, absorbance at 620 nm, background subtracted and normalised to expression; only the target purified
T1 sequence: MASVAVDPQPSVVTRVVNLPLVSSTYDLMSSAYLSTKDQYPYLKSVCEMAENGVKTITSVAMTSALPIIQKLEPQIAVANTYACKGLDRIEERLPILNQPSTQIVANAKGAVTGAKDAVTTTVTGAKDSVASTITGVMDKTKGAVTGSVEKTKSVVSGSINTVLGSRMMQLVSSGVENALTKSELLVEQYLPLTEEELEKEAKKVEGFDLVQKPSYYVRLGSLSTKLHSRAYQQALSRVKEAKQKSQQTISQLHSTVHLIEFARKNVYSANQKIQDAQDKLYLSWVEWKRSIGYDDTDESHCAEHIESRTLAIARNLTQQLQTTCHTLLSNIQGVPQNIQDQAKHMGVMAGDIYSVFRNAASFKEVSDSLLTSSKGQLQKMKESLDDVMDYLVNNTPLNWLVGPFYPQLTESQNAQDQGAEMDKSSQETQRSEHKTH

[2] = target: T2, human PLIN3 (perilipin 3), partially purified (pcDNA4/HisMaxC-mut-hsPLIN3) (human) (UniProt O60664); assay: as above
T2 sequence: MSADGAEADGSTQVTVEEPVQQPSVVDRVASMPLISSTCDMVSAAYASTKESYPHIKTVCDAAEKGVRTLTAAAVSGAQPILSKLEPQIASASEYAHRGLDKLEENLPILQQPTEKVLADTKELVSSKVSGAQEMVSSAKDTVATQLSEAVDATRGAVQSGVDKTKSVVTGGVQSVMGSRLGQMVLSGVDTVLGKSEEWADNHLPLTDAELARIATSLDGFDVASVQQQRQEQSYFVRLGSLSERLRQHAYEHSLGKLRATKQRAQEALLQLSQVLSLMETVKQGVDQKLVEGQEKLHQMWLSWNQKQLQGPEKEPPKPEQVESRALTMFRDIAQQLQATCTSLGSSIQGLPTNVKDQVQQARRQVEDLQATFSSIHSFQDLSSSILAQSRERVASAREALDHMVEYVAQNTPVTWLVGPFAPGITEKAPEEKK

[3] = target: T3, 3xFLAG-tagged full-length human PNPLA1, partially purified (pcDNA4/HisMaxC-mut-3xFLAG-hsPNPLA1) (human) (UniProt Q8N8W4); assay: as above
T3 sequence: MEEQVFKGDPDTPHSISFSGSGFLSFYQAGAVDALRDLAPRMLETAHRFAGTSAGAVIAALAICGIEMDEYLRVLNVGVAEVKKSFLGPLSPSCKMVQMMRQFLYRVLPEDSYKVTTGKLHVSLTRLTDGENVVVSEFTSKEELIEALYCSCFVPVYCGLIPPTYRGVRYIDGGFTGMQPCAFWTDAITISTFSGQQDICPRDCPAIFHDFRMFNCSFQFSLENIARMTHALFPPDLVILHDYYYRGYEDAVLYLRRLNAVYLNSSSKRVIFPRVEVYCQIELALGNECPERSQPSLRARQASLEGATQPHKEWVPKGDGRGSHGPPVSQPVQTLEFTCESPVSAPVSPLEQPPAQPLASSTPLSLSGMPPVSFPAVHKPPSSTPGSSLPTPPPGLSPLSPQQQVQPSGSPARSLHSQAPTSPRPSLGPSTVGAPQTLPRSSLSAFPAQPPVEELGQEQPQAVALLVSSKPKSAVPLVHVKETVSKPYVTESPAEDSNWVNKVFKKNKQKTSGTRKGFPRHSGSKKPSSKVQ

[4] = target: T4, FLAG-tagged human PNPLA1 (patatin-like phospholipase domain-containing 1), from pFLAG-CMV-hsPNPLA1 (human) (UniProt Q8N8W4); assay: co-IP; HEK293T co-transfected with FLAG-PNPLA1 and Xpress-tagged ABHD5 variants; lysis in 50 mM Tris/HCl pH 7.4, 150 mM NaCl, 1 mM EDTA, 1% NP-40; 1 mg lysate with anti-FLAG M2-agarose overnight at 4°C; eight washes; immunoblot
T4 sequence: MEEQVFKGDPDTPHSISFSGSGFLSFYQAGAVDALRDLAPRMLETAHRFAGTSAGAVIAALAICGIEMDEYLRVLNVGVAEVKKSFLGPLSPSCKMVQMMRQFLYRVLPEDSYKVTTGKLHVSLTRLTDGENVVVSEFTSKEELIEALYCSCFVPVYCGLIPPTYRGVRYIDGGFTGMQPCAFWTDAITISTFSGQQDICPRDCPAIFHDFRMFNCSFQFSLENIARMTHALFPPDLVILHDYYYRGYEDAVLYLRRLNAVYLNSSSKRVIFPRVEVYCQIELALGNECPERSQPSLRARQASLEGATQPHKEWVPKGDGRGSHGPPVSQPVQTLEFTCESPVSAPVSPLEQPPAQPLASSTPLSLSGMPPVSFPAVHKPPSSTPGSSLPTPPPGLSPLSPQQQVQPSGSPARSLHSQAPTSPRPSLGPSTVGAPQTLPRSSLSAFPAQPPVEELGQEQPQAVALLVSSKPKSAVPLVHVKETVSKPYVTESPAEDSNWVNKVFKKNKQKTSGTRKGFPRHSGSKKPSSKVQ

B1: Xpress-tagged wild-type human ABHD5 (α/β-hydrolase domain-containing 5) (protein, UniProt Q8WTS1 1-349)
chain: MAAEEEEVDSADTGERSGWLTGWLPTWCPTSISHLKEAEEKMLKCVPCTYKKEPVRISNGNKIWTLKFSHNISNKTPLVLLHGFGGGLGLWALNFGDLCTNRPVYAFDLLGFGRSSRPRFDSDAEEVENQFVESIEEWRCALGLDKMILLGHNLGGFLAAAYSLKYPSRVNHLILVEPWGFPERPDLADQDRPIPVWIRALGAALTPFNPLAGLRIAGPFGLSLVQRLRPDFKRKYSSMFEDDTVTEYIYHCNVQTPSGETAFKNMTIPYGWAKRPMLQRIGKMHPDIPVSVIFGARSCIDGNSGTSIQSLRPHSYVKTIAILGAGHYVYADQPEEFNQKVKEICDTVD
binding [1]: binds
binding [2]: binds
binding [3]: binds
binding [4]: binds

B2: Xpress-tagged human ABHD5 p.H251P (protein, UniProt Q8WTS1 1-349)
chain: MAAEEEEVDSADTGERSGWLTGWLPTWCPTSISHLKEAEEKMLKCVPCTYKKEPVRISNGNKIWTLKFSHNISNKTPLVLLHGFGGGLGLWALNFGDLCTNRPVYAFDLLGFGRSSRPRFDSDAEEVENQFVESIEEWRCALGLDKMILLGHNLGGFLAAAYSLKYPSRVNHLILVEPWGFPERPDLADQDRPIPVWIRALGAALTPFNPLAGLRIAGPFGLSLVQRLRPDFKRKYSSMFEDDTVTEYIYPCNVQTPSGETAFKNMTIPYGWAKRPMLQRIGKMHPDIPVSVIFGARSCIDGNSGTSIQSLRPHSYVKTIAILGAGHYVYADQPEEFNQKVKEICDTVD
binding [1]: binds
binding [2]: binds
binding [3]: binds
binding [4]: binds

B3: Xpress-tagged human ABHD5 p.R297N (natural protein, UniProt Q8WTS1 1-349, looked up)
chain: MAAEEEEVDSADTGERSGWLTGWLPTWCPTSISHLKEAEEKMLKCVPCTYKKEPVRISNGNKIWTLKFSHNISNKTPLVLLHGFGGGLGLWALNFGDLCTNRPVYAFDLLGFGRSSRPRFDSDAEEVENQFVESIEEWRCALGLDKMILLGHNLGGFLAAAYSLKYPSRVNHLILVEPWGFPERPDLADQDRPIPVWIRALGAALTPFNPLAGLRIAGPFGLSLVQRLRPDFKRKYSSMFEDDTVTEYIYHCNVQTPSGETAFKNMTIPYGWAKRPMLQRIGKMHPDIPVSVIFGANSCIDGNSGTSIQSLRPHSYVKTIAILGAGHYVYADQPEEFNQKVKEICDTVD
notes: human ABHD5, full-length open reading frame of NM_016006.6 with the patient mutation p.R297N; Disease-associated (ABHD5-sEDD) missense variant made by site-directed mutagenesis; source: HEK293T, transfected (pcDNA4/HisMaxC), in lysate
binding [4]: binds

B4: Xpress-tagged human ABHD5 p.H82R (natural protein, UniProt Q8WTS1 1-349, looked up)
chain: MAAEEEEVDSADTGERSGWLTGWLPTWCPTSISHLKEAEEKMLKCVPCTYKKEPVRISNGNKIWTLKFSHNISNKTPLVLLRGFGGGLGLWALNFGDLCTNRPVYAFDLLGFGRSSRPRFDSDAEEVENQFVESIEEWRCALGLDKMILLGHNLGGFLAAAYSLKYPSRVNHLILVEPWGFPERPDLADQDRPIPVWIRALGAALTPFNPLAGLRIAGPFGLSLVQRLRPDFKRKYSSMFEDDTVTEYIYHCNVQTPSGETAFKNMTIPYGWAKRPMLQRIGKMHPDIPVSVIFGARSCIDGNSGTSIQSLRPHSYVKTIAILGAGHYVYADQPEEFNQKVKEICDTVD
notes: human ABHD5, full-length open reading frame of NM_016006.6 with the patient mutation p.H82R; Disease-associated (ABHD5-sEDD) missense variant made by site-directed mutagenesis; source: HEK293T, transfected (pcDNA4/HisMaxC), in lysate
binding [1]: binds
binding [2]: binds
binding [4]: binds

B5: Xpress-tagged human ABHD5 p.E260K (natural protein, UniProt Q8WTS1 1-349, looked up)
chain: MAAEEEEVDSADTGERSGWLTGWLPTWCPTSISHLKEAEEKMLKCVPCTYKKEPVRISNGNKIWTLKFSHNISNKTPLVLLHGFGGGLGLWALNFGDLCTNRPVYAFDLLGFGRSSRPRFDSDAEEVENQFVESIEEWRCALGLDKMILLGHNLGGFLAAAYSLKYPSRVNHLILVEPWGFPERPDLADQDRPIPVWIRALGAALTPFNPLAGLRIAGPFGLSLVQRLRPDFKRKYSSMFEDDTVTEYIYHCNVQTPSGKTAFKNMTIPYGWAKRPMLQRIGKMHPDIPVSVIFGARSCIDGNSGTSIQSLRPHSYVKTIAILGAGHYVYADQPEEFNQKVKEICDTVD
notes: human ABHD5, full-length open reading frame of NM_016006.6 with the patient mutation p.E260K; Disease-associated (ABHD5-sEDD) missense variant made by site-directed mutagenesis; source: HEK293T, transfected (pcDNA4/HisMaxC), in lysate
binding [1]: binds
binding [2]: binds
binding [4]: binds

B6: Xpress-tagged human ABHD5 p.S115G (natural protein, UniProt Q8WTS1 1-349, looked up)
chain: MAAEEEEVDSADTGERSGWLTGWLPTWCPTSISHLKEAEEKMLKCVPCTYKKEPVRISNGNKIWTLKFSHNISNKTPLVLLHGFGGGLGLWALNFGDLCTNRPVYAFDLLGFGRGSRPRFDSDAEEVENQFVESIEEWRCALGLDKMILLGHNLGGFLAAAYSLKYPSRVNHLILVEPWGFPERPDLADQDRPIPVWIRALGAALTPFNPLAGLRIAGPFGLSLVQRLRPDFKRKYSSMFEDDTVTEYIYHCNVQTPSGETAFKNMTIPYGWAKRPMLQRIGKMHPDIPVSVIFGARSCIDGNSGTSIQSLRPHSYVKTIAILGAGHYVYADQPEEFNQKVKEICDTVD
notes: human ABHD5, full-length open reading frame of NM_016006.6 with the patient mutation p.S115G; Disease-associated (ABHD5-sEDD) missense variant made by site-directed mutagenesis; source: HEK293T, transfected (pcDNA4/HisMaxC), in lysate
binding [1]: binds
binding [2]: binds
binding [4]: binds

B7: Xpress-tagged human ABHD5 p.Q130P (natural protein, UniProt Q8WTS1 1-349, looked up)
chain: MAAEEEEVDSADTGERSGWLTGWLPTWCPTSISHLKEAEEKMLKCVPCTYKKEPVRISNGNKIWTLKFSHNISNKTPLVLLHGFGGGLGLWALNFGDLCTNRPVYAFDLLGFGRSSRPRFDSDAEEVENPFVESIEEWRCALGLDKMILLGHNLGGFLAAAYSLKYPSRVNHLILVEPWGFPERPDLADQDRPIPVWIRALGAALTPFNPLAGLRIAGPFGLSLVQRLRPDFKRKYSSMFEDDTVTEYIYHCNVQTPSGETAFKNMTIPYGWAKRPMLQRIGKMHPDIPVSVIFGARSCIDGNSGTSIQSLRPHSYVKTIAILGAGHYVYADQPEEFNQKVKEICDTVD
notes: human ABHD5, full-length open reading frame of NM_016006.6 with the patient mutation p.Q130P; Disease-associated (ABHD5-sEDD) missense variant made by site-directed mutagenesis; source: HEK293T, transfected (pcDNA4/HisMaxC), in lysate
binding [1]: binds
binding [2]: binds
binding [4]: binds

B8: Xpress-tagged human ABHD5 p.G271R (natural protein, UniProt Q8WTS1 1-349, looked up)
chain: MAAEEEEVDSADTGERSGWLTGWLPTWCPTSISHLKEAEEKMLKCVPCTYKKEPVRISNGNKIWTLKFSHNISNKTPLVLLHGFGGGLGLWALNFGDLCTNRPVYAFDLLGFGRSSRPRFDSDAEEVENQFVESIEEWRCALGLDKMILLGHNLGGFLAAAYSLKYPSRVNHLILVEPWGFPERPDLADQDRPIPVWIRALGAALTPFNPLAGLRIAGPFGLSLVQRLRPDFKRKYSSMFEDDTVTEYIYHCNVQTPSGETAFKNMTIPYRWAKRPMLQRIGKMHPDIPVSVIFGARSCIDGNSGTSIQSLRPHSYVKTIAILGAGHYVYADQPEEFNQKVKEICDTVD
notes: human ABHD5, full-length open reading frame of NM_016006.6 with the patient mutation p.G271R; Disease-associated (ABHD5-sEDD) missense variant made by site-directed mutagenesis; source: HEK293T, transfected (pcDNA4/HisMaxC), in lysate
binding [4]: binds
